Data on two substances can be found in patent US4551445A (The Medical College of Ohio, priority 1983, dated 1985).

Some peptides are written in HELM: one residue between dots, names in brackets for other building blocks, links after the first $.

A short description of the data set: general procedure: Boc solid-phase peptide synthesis; Boc-Gly-resin; p-nitrophenyl ester; N-hydroxybenzotriazole. The settings on record: for cyclisation yield: cyclisation step.
The mark [1] stands for this setting: whole synthesis, scale 0.5 mmol.

For the setting “whole synthesis, based on initial Gly content on the resin, scale 0.5 mmol”, “β-(S-Benzylmercapto)-β,β-cyclopentamethylenepropionyl-Tyr(Bzl)--Phe--Gln--Asn--Cys(Bzl)--Pro--Arg(Tos)--Gly--NH2” gave an isolated yield of 62.4%. Under setting [1], this substance yielded a crude mass of 723 mg and an isolated mass of 488 mg.
Turning to “PEPTIDE1{[Pmp].[TyrMe].F.Q.N.C.P.R.G.[am]}$PEPTIDE1,PEPTIDE1,1:R3-6:R3$$$V2.0”, the cyclisation yield amounted to 37.3% (run 1) and 51.7% (run 2).
